Measured values published in PubChem BioAssay AID1645883 (National Center for Advancing Translational Sciences (NCATS), 2021).
Among all 16,000 compounds or so, about 160 (1%) were called active. The source calls these results inconclusive, neither active nor inactive. The call rests on the fitted dose curve; in most records, active means well fitted activation curve with a large enough effect; inconclusive means small, poorly fitted or top-dose-only effect; inactive means no such curve, though single readings can be large or run the other way.

The chains behind the UniProt entries cited, without tags or fusion partners.
UniProt O95398, whole entry: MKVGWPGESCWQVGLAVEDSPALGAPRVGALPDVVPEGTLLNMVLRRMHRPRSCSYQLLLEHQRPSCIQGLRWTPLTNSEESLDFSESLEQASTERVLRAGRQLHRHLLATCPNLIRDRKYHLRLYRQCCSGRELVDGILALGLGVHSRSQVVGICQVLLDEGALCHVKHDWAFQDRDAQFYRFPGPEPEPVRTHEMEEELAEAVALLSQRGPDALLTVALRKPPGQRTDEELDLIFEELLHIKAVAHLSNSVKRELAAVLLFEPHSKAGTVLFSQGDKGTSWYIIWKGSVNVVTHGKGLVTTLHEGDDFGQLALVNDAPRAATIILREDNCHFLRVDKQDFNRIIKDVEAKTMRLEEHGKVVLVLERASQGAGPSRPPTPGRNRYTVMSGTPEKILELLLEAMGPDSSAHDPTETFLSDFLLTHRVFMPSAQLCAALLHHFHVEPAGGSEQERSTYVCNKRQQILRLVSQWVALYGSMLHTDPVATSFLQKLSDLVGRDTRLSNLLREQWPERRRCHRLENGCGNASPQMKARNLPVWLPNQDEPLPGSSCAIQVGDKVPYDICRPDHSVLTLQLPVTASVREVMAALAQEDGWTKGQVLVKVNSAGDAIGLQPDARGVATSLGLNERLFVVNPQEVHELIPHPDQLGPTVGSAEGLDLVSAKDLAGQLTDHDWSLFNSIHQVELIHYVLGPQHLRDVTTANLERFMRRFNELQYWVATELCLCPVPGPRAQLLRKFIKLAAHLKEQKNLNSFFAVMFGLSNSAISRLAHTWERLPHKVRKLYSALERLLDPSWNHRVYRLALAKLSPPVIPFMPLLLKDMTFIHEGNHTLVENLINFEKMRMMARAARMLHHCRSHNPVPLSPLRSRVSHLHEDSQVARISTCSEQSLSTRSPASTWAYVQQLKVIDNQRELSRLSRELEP

These compounds were tested against Rap guanine nucleotide exchange factor 3 (Homo sapiens) (UniProt O95398) (assay: Validation qHTS for agonist of cAMP-regulated guanine nucleotide exchange factor 3 (EPAC1)). Conditions: EPAC1 Rap1b BODIPY-GDP exchange, fluorescence.
Text: Assay Provider (PI): Xiaodong Cheng Ph.D.
The University of Texas Medical Branch, […], TX
In multi-cellular eukaryotic organisms, the effects of cAMP are transduced by two ubiquitously-expressed intracellular cAMP receptors, the classic protein kinase A/cAMP-dependent protein kinase (PKA/cAPK) and the more recently discovered exchange protein directly activated by cAMP/cAMP-regulated guanine nucleotide exchange factor (EPAC/cAMP-GEF). Both PKA and EPAC are ubiquitously expressed in all tissues, and an increase in intracellular cAMP levels will lead to the activation of both PKA and EPAC. […]
This qHTS will be used to screen the Molecular Libraries Small Molecule Repository (MLSMR) as a concentration-titration series using the NCGC unique quantitative screening (qHTS) platform to find activators for EPAC1. […] Activators are identified by monitoring the change in fluorescence signal as the exchanged free BODIPY-GDP has a reduced fluorescence compared to Rap1-bound BODIPY-GDP. […]
Briefly, three uL of reagents (100 nM EPAC1, 250 nM RAP1B-BODIPY-GDP, 50 uM GDP) were dispensed into a 1536-well Greiner black solid-bottom medium binding assay plate. […] The assay plates were read at 5 minute intervals for 30 minutes in the ViewLux plate reader using 480nm excitation and 540nm emission filters. […]

| Compound | outcome |
| --- | --- |
| OCCSCCO | inconclusive |
